Drawing on PMC5730767, this text covers binding for two substances.

Chains of the proteins cited; added tags and fusions are not shown.
UniProt Q92538: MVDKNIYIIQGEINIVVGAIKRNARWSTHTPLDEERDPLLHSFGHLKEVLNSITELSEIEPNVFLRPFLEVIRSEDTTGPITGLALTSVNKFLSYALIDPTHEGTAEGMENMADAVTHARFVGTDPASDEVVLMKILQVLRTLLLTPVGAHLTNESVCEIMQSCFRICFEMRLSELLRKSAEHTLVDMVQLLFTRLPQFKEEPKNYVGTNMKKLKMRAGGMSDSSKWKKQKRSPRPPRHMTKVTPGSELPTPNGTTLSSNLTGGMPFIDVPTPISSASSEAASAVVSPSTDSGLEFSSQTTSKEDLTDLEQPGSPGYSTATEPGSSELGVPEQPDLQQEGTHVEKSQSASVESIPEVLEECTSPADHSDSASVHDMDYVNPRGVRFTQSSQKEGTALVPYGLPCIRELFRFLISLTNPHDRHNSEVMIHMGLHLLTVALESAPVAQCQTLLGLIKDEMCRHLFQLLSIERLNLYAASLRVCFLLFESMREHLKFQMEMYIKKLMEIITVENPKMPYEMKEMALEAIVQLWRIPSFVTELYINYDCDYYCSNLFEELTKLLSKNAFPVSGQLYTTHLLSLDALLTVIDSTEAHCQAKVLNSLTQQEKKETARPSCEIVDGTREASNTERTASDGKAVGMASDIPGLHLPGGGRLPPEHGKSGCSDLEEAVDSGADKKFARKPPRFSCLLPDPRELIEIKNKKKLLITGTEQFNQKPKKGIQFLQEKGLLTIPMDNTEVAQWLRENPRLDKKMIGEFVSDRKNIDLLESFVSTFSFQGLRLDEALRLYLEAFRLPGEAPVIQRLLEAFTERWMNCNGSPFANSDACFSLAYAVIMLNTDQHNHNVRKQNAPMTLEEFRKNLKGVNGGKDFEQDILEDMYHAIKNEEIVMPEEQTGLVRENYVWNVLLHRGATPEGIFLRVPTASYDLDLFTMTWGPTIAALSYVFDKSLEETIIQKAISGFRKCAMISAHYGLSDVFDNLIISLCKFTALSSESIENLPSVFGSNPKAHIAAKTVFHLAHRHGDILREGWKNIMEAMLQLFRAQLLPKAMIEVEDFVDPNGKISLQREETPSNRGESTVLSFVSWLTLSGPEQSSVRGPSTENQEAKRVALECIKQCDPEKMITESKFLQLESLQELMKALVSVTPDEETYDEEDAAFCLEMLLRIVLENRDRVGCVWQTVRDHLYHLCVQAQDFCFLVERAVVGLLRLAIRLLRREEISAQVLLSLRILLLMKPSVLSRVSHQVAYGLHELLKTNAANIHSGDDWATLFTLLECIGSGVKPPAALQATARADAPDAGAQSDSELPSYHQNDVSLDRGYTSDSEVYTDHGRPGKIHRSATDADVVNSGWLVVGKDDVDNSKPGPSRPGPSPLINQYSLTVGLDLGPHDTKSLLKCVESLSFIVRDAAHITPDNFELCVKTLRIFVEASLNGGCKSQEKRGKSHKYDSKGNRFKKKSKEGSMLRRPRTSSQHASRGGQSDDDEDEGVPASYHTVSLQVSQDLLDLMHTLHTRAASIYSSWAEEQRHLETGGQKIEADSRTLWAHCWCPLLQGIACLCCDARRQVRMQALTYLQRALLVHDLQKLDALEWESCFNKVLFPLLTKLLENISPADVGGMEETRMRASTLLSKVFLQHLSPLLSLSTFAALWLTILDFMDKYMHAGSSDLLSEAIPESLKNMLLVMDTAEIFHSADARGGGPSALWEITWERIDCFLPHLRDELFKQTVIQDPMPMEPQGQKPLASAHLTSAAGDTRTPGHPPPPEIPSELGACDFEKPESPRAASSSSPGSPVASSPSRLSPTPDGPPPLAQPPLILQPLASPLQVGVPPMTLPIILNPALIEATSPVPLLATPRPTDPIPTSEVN

No constants are given. Whether binding was seen depends on the method and setting. Binding seen in cells or lysates may run through a third protein. Some binding calls cover weakened binding; strength is not graded here. Sequences can lack the tags named with a protein.

This assay deals with T1, N-terminally FLAG-tagged wt viperin (human) (UniProt Q8WXG1).
T1 sequence: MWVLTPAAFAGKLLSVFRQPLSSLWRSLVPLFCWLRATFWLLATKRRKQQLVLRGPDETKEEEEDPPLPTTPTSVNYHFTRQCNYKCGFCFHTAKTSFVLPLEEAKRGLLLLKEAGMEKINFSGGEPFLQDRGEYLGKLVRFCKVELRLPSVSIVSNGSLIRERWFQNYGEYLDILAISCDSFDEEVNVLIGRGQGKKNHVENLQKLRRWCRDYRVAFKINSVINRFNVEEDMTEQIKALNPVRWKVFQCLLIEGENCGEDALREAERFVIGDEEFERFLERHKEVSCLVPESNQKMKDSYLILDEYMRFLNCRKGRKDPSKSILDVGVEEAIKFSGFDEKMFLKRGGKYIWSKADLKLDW
Kind of assay: co-IP.

With “Golgi brefeldin A-resistant guanine nucleotide exchange factor 1 (GBF1), endogenous in HEK293T cells (from UniProt Q92538 1-1860)”, the binding result is on record as “binds”. On to “YFP-tagged GBF1 (YFP-GBF1-wt) (from UniProt Q92538 1-1860)”, for which the binding result is reported as “binds”.
